{"source": "patent US8759481B2", "about": "“Peptide vaccines for cancers expressing tumor-associated antigens” (Oncotherapy Science, Inc., priority 2007, dated 2014)", "format_in_all_cases": "cell-based, human", "key": {"[1]": {"tested_on": "peptide-pulsed A24-LCL cells", "test": "CTL clones by limiting dilution, specific CTL activity", "details": "HLA-A24 peptides; vs target without peptide pulse", "experimental": "The dilutions were made to have 0.3, 1, and 3 CTLs/well in 96 round-bottomed micro titer plate (Nalge Nunc International). CTLs were cultured with 7×10^4 cells/well of 2 kinds of human B-lymphoblastoid cell lines, 30 ng/ml of anti-CD3 antibody, and 125 U/ml of IL-2 in total of 150 micro 1/well of AIM-V containing 5% AS. 50 micro 1/well of IL-2 was added to the medium 10 days later so that IL-2 became 125 U/ml in the final concentration. CTL activity of CTLs was tested on the 14th day, and CTL clones were expanded using the same method above.\n(§1) Briefly, peptide-pulsed A24-LCL or T2 cell (1×10^4/well) was prepared as stimulator cells. Cultured Cells in 48 wells or CTL clones after limiting dilution were used as responder cells. IFN-gamma ELISPOT assay and ELISA assay were performed under manufacture procedure."}, "[2]": {"tested_on": "A24-LCL transfected with full length KIF20A gene", "test": "Specific CTL activity against transfected target cells", "details": "CTL clone; vs A24-LCL transfected mock vector"}, "[3]": {"tested_on": "COS7 transfected with full length HIG2 gene and HLA-A*0201", "test": "Specific CTL activity against transfected target cells", "details": "CTL line raised by the peptide; vs control transfectants; listed as HIG2-A02-9-4", "experimental": "as §1\nThe cDNA encoding an open reading frame of target genes or HLA-A02 or HLA-A24 was amplified by PCR. The PCR-amplified product was cloned into pcDNA3.1 myc-His vector (Invitrogen). The plasmids were transfected into the target cells, HLA-A02 and HLA-A24-null normal human cell line COS7 or 293T using lipofectamine (Invitrogen) according to the manufacturer's recommended procedures. Alternatively, the plasmid contained the target genes were transfected into A24-LCL by electroporation using GenePulserII (Biorad). Briefly, 2.5×10^6 A24-LCL cells were pulsed with 10 mcg prasmid at 140V and 1000 micro F. After 2 days from transfection, the transfected cells were treated with Cell dissociation solution and used as the target cells for CTL activity assay.\nThe established CTL line raised against these peptides were examined for their ability to recognize the target cells expressing HIG2 and HLA-A*0201. […] 293T or COS7 transfected with full length ECT2 but not HLA-A*0201 and 293T or COS7 transfected with HLA-A*0201 but not full length ECT2 (or replaced other gene e.g. FoxP3 or TTK) were prepared as controls."}}, "note": "Part of at least one peptide drawing is inferred or uncertain, most often the ends. Some compounds share one wording; it may come from a single statement. Ends that are not written are not given here.", "data": [{"sequence": "FFEIYNELL [SEQ ID NO: 174]", "values": [{"measurement": "CTL activities of CTL clones against the peptide-pulsed target", "setting": "[1]", "result": "potent and specific CTL activities"}]}, {"sequence": "LYLKLLPYV [SEQ ID NO: 395]", "values": [{"measurement": "CTL activities of CTL clones against the peptide-pulsed target", "setting": "[1]", "result": "potent and specific CTL activities"}]}, {"sequence": "SFFEIYNELL [SEQ ID NO: 186]", "values": [{"measurement": "CTL activities of CTL clones against the peptide-pulsed target", "setting": "[1]", "result": "potent and specific CTL activities"}, {"measurement": "Specific CTL activity against A24-LCL transfected with full length KIF20A gene", "setting": "[2]", "result": "specific CTL activity"}]}, {"sequence": "VLNLYLLGV [SEQ ID NO: 117, VLNLYLLGV]", "values": [{"measurement": "Specific CTL activity against COS7 transfected with both HIG2 and HLA-A02", "setting": "[3]", "result": "specific CTL activity"}]}]}
